Reference: publication PMC12669696

Protein sequences, listed by entry. Tags and fused reporters are not part of them. Lines headed by an entry give the natural chain unless they say otherwise; changes in a name come on top. Residues count along the entry.
UniProt Q86VR2: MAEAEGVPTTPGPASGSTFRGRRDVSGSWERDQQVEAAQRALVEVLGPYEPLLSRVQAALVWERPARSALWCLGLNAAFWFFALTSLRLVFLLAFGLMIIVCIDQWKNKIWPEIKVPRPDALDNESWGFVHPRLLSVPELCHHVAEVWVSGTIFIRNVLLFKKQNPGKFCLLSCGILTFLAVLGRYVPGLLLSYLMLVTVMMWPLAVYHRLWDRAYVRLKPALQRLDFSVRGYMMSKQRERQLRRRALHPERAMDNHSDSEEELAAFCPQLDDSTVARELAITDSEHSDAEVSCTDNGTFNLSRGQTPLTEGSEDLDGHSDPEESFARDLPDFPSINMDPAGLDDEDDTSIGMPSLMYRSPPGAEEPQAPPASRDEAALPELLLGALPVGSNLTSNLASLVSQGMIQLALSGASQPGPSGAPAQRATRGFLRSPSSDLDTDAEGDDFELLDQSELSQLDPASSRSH
UniProt P36894, residues 24-532: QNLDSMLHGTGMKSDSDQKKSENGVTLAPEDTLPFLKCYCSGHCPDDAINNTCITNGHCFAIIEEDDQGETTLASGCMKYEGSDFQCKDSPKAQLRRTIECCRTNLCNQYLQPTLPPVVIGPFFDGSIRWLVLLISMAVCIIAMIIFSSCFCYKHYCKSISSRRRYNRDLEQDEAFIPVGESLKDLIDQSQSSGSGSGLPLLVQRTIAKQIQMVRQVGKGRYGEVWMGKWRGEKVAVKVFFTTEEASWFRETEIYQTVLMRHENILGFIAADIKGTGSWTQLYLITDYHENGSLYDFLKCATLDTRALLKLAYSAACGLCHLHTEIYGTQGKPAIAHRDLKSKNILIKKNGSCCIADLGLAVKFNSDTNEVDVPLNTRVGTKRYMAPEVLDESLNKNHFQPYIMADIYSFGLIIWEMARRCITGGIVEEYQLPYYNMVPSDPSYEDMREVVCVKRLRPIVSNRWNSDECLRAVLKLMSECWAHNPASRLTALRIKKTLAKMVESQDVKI

Columns and labels:
FAM134C-mLIR-FLAG = FAM134C-mLIR-FLAG (UniProt Q86VR2); test: co-IP; HEK293T co-transfected, harvested 24 h after transfection; FLAG-tagged FAM134 protein immunoprecipitated with anti-FLAG antibody and protein A Sepharose; HA-tagged partner or endogenous LC3 detected by Western blotting
FAM134C-ΔLIR-FLAG = FAM134C-ΔLIR-FLAG (UniProt Q86VR2); test: as above

Substance: BMPR1A-HA (from UniProt P36894 24-532) (receptor)
- binding (FAM134C-mLIR-FLAG): binds
- binding (FAM134C-ΔLIR-FLAG): binds

Results are given in words; binding and its absence hold for the method and conditions named. In cells and extracts the contact can be indirect. A result given as binding can be weak or reduced; the word gives no strength.
